Test system: 2D12.5
Assay: time-resolved terbium luminescence of Tb-DOTA bound to 2D12.5
Parameters: species or system murine

`O=C([O-])CN1CCN(CC(=O)[O-])CCN(CC(=O)[O-])C(Cc2ccc([N+](=O)[O-])cc2)CN(CC(=O)[O-])CC1.[Tb+3]` (centres unmarked) [Tb-DOTA] was tested, and the “enhancement of green terbium luminescence relative to unbound Tb-DOTA” value (UV excitation of the Tb-DOTA-2D12.5 complex) was “approximately four orders of magnitude” and the “enhancement in the green 545 nm emission” value (time-resolved 280 nm excitation, FIG. 15) was “marked, linear enhancement”.

— US7528235B2, “Multi-functional antibodies” (The Regents of the Univarsity of California, priority 2003, dated 2009)
